Source: patent US20190119696A1 (YEDA RESEARCH AND DEVELOPMENT, published 2019)
No constants are given. Whether binding was seen depends on the method and setting. Some entries that bind do so weakly or less than the wild type. Sequences can lack the tags named with a protein.

Biological target: T1, 2-Cys Prx (2-Cys peroxiredoxin, 2-Cys PrxA, At3g11630), endogenous in Arabidopsis plants (Arabidopsis thaliana) (UniProt Q96291)
T1 sequence (looked up): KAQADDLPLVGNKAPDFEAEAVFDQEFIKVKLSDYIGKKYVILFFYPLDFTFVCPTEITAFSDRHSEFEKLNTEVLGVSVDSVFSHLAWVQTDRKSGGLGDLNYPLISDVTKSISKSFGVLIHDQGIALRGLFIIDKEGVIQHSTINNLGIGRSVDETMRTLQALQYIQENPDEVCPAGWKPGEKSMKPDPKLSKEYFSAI
Test: in planta trapped intermolecular disulfide reaction intermediates; non-reducing SDS-PAGE, anti-HA immunoblot

B1: ACHT4ΔC (Arabidopsis ACHT4 lacking the 47-amino acid C-terminus), fused to the HA3 affinity tag (enzyme, not shown: small tags and cut ends)
chain: SSAITAQTTLRIGTAQKWWEKGLKDNMREISSAQELVDSLTNAGDKLVVVDFFSPGCGGCKALHPKICQFAEMNPDVQFLQVNYEEHKSMCYSLGVHVLPFFRFYRGSQGRVCSFSCTNATIKKFRDALAKHGPDRCSLGPTKGLEEKELVALAAN
notes: also called AtACHT4ΔC; AtACHT4-C-Del
With B1 the binding was “binds”.
